Where two headings read alike, the source gives them in different places. Results are given in words; binding and its absence hold for the method and conditions named. For some assays here: Binding seen in cells or lysates may run through a third protein. Some binding calls cover weakened binding; strength is not graded here. For some assays here: Sequences can lack the tags named with a protein.
T1: GST-CDHR5 CD (human) (UniProt Q9HBB8)
T1 sequence: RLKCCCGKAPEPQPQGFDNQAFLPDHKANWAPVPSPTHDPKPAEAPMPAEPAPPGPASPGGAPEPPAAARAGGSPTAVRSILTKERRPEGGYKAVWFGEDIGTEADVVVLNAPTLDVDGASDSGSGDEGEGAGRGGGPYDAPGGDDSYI

By UniProt entry, the sequences of proteins in these tests, tags left out. Where a name states a change or a piece, a line headed by the entry shows the natural chain unless it says otherwise. Chains listed by the source or under a name are the forms on record and can include a tag or linker. Residues count along the entry.
UniProt Q15599: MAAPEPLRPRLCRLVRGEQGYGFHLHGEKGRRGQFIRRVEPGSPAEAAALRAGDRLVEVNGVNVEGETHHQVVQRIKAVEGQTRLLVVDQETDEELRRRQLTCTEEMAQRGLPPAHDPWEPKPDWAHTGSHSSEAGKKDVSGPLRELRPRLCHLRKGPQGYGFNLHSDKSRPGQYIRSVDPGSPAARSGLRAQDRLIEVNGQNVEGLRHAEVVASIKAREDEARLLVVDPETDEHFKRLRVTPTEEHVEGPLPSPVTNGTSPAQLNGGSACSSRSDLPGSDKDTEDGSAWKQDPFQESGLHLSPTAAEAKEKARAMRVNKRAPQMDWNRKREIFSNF
myc-tagged E3KARP-FL ΔPBM: residues 1-329 of Q15599
myc-tagged E3KARP-PDZ12: residues 1-284 of Q15599
myc-tagged E3KARP-PDZ2: residues 150-284 of Q15599
UniProt P15311: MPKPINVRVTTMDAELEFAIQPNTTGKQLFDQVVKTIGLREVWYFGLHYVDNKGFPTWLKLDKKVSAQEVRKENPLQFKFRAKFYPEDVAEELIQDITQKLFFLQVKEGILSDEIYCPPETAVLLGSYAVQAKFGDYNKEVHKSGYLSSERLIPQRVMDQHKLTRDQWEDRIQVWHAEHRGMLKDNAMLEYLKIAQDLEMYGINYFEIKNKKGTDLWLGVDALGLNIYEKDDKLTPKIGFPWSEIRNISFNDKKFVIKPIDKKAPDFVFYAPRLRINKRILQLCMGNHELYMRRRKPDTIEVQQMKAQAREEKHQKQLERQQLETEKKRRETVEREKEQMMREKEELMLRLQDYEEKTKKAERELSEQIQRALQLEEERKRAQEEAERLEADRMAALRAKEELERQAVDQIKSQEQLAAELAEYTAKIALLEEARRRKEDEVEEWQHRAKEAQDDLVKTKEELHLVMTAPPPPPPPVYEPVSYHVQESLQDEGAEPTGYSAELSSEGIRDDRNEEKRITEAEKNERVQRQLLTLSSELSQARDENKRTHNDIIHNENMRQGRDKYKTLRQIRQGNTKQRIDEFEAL

T2: GST-CDHR5 CD I845R (human) (UniProt Q9HBB8)
T2 sequence: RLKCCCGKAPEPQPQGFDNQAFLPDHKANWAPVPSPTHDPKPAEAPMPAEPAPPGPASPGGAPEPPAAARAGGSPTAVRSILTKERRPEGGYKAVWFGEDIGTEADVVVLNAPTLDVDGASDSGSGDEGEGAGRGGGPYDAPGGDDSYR


Experiments:
Assay in all cases: pull-down
GST-CDHR5 CD (human) [1] = biological target: T1, GST-CDHR5 CD (human)
GST-CDHR5 CD (human) [2] = biological target: T1, GST-CDHR5 CD (human); remark: listed apart in the source
GST-CDHR5 CD (human) [3] = biological target: T1, GST-CDHR5 CD (human); remark: listed apart in the source
[4] = biological target: myc-tagged E3KARP full-length (human) (UniProt Q15599)
[5] = biological target: T2, GST-CDHR5 CD I845R (human)

Molecule	binding (GST-CDHR5 CD (human) [1])	further results
myc-tagged E3KARP-PDZ2 (from UniProt Q15599-1 150-284) (domain or fragment)	binds	
myc-tagged E3KARP-PDZ12 (from UniProt Q15599-1 1-284) (domain or fragment)	binds	
myc-tagged EBP50-FL ΔPBM (from UniProt O14745-1 1-353) (domain or fragment)	binds	
myc-tagged E3KARP full-length (from UniProt Q15599-1 1-337)	binds	binding (GST-CDHR5 CD (human) [2]): binds weakly
myc-tagged EBP50-PDZ1 (from UniProt O14745-1 1-148) (domain or fragment)	binds	
EGFP-tagged Ezrin-WT (from UniProt P15311 1-586)	no binding	binding (GST-CDHR5 CD (human) [3]): no binding
myc-tagged E3KARP-FL ΔPBM (from UniProt Q15599-1 1-329) (domain or fragment)	binds	
EGFP-tagged Ezrin-NERMAD (isolated FERM domain) (from UniProt P15311 1-297) (domain or fragment)		binding [4]: binds
EGFP-tagged Ezrin-T567D (from UniProt P15311 1-586)	no binding	binding (GST-CDHR5 CD (human) [3]): no binding
myc-tagged EBP50-PDZ12 (domain or fragment, UniProt O14745-1 1-298) MSADAAAGAPLPRLCCLEKGPNGYGFHLHGEKGKLGQYIRLVEPGSPAEKAGLLAGDRLVEVNGENVEKETHQQVVSRIRAALNAVRLLVVDPETDEQLQKLGVQVREELLRAQEAPGQAEPPAAAEVQGAGNENEPREADKSHPEQRELRPRLCTMKKGPSGYGFNLHSDKSKPGQFIRSVDPDSPAEASGLRAQDRIVEVNGVCMEGKQHGDVVSAIRAGGDETKLLVVDRETDEFFKKCRVIPSQEHLNGPLPVPFTNGEIQKENSREALAEAALESPRPALVRSASSDTSEELN	binds	
His-NEON-EBP50 PDZ1PDZ2 (domain or fragment, UniProt O14745-1 1-298) MSADAAAGAPLPRLCCLEKGPNGYGFHLHGEKGKLGQYIRLVEPGSPAEKAGLLAGDRLVEVNGENVEKETHQQVVSRIRAALNAVRLLVVDPETDEQLQKLGVQVREELLRAQEAPGQAEPPAAAEVQGAGNENEPREADKSHPEQRELRPRLCTMKKGPSGYGFNLHSDKSKPGQFIRSVDPDSPAEASGLRAQDRIVEVNGVCMEGKQHGDVVSAIRAGGDETKLLVVDRETDEFFKKCRVIPSQEHLNGPLPVPFTNGEIQKENSREALAEAALESPRPALVRSASSDTSEELN		binding [5]: no binding

Source: doi:10.1101/2023.02.22.529570 (bioRxiv, 2023)
